Measured values as given in patent US20190374627A1, “TARGET PEPTIDES FOR CANCER THERAPY AND DIAGNOSTICS” (priority 2016, published 2019).

Assays:
Design in all cases: key: The presence of phosphopeptides in previously analyzed samples including leukemia, colorectal cancer, melanoma, ovarian cancer, breast cancer, and esophageal cancer is indicated by ✓
esophageal cancer = assay: Presence of the phosphopeptide in previously analyzed esophageal cancer samples
colorectal cancer = assay: Presence of the phosphopeptide in previously analyzed colorectal cancer samples
melanoma = assay: Presence of the phosphopeptide in previously analyzed melanoma samples
leukemia = assay: Presence of the phosphopeptide in previously analyzed leukemia samples
breast cancer = assay: Presence of the phosphopeptide in previously analyzed breast cancer samples

105 (KPRSPVVEL; (4)...(4) The amino acid at this position is optionally phosphorylated; listed as Homo sapiens) [compound 105]
✓: Esophageal (esophageal cancer) | Colorectal (colorectal cancer) | Melanoma (melanoma) | Leukemia (leukemia) | Breast (breast cancer)

111 (LPASPRARL; (4)...(4) The amino acid at this position is optionally phosphorylated; listed as Homo sapiens) [compound 111]
✓: Esophageal (esophageal cancer) | Colorectal (colorectal cancer) | Melanoma (melanoma) | Leukemia (leukemia) | Breast (breast cancer)

137 (RPFSPREAL; (4)...(4) The amino acid at this position is optionally phosphorylated; listed as Homo sapiens) [compound 137]
✓: Esophageal (esophageal cancer) | Colorectal (colorectal cancer) | Melanoma (melanoma) | Leukemia (leukemia) | Breast (breast cancer)

166 (RPRPVSPSSL; (6)...(6) The amino acid at this position is optionally phosphorylated; listed as Homo sapiens) [compound 166]
✓: Esophageal (esophageal cancer) | Colorectal (colorectal cancer) | Melanoma (melanoma) | Leukemia (leukemia) | Breast (breast cancer)

182 (RPRSPRQNSI; (4)...(4) The amino acid at this position is optionally phosphorylated; listed as Homo sapiens) [compound 182]
✓: Esophageal (esophageal cancer) | Colorectal (colorectal cancer) | Melanoma (melanoma) | Leukemia (leukemia) | Breast (breast cancer)

193 (RPVSPFQEL; (4)...(4) The amino acid at this position is optionally phosphorylated; listed as Homo sapiens) [compound 193]
✓: Esophageal (esophageal cancer) | Colorectal (colorectal cancer) | Melanoma (melanoma) | Leukemia (leukemia) | Breast (breast cancer)

205 (SPFKRQLSL; (8)...(8) The amino acid at this position is optionally phosphorylated; listed as Homo sapiens) [compound 205]
✓: Esophageal (esophageal cancer) | Colorectal (colorectal cancer) | Melanoma (melanoma) | Breast (breast cancer)

216 (TPRSPPLGL; (4)...(4) The amino acid at this position is optionally phosphorylated; listed as Homo sapiens) [compound 216]
✓: Esophageal (esophageal cancer) | Colorectal (colorectal cancer) | Melanoma (melanoma) | Leukemia (leukemia) | Breast (breast cancer)
